Reference: patent US20020010128A1, “Treatment of hyperproliferative, inflammatory and related mucocutaneous disorders using inhibitors of mevalonate synthesis and metabolism” (priority 2000, published 2002)
Some results were stated once for a whole list of compounds, not compound by compound.

Tested on: Murine thymic T cells
Assay: Murine thymic T cell proliferation (ConA stimulation, MTT assay)
Format: cell-based
Settings: mevastatin combined with 0.25 μg/ml 25-hydroxycholesterol or 10 μg/ml C-010
Method: Murine thymic T cells were stimulated with Concanavalin A and incubated for 72 hr, and proliferation was then assessed by measuring viable cell number using the MTT assay (OD 570 nm proportional to viable cell number). Different concentrations of mevastatin and oxysterol alone (CP compounds; Panel A) or oxysterol combined with lanolin (Panel B) were added to the cells 1 hr following ConA treatment (FIG. 2).
T cells were incubated with different concentrations of mevastatin (CP 115) alone or in the presence of 1 mM mevalonate (MA). The inhibition of T cell proliferation by mevastatin was prevented by addition of mevalonic acid, the product of the HMG-CoA reductase reaction (FIG. 3).
Murine thymic T cells were incubated with different concentrations of 25-hydroxycholesterol (CP 105; Panel A) or an oxysterol combined with lanolin (C-010; Panel B) in the absence or presence of 1 mM mevalonate (MA).
To further test this synergistic effect, T cells were incubated with different concentrations of mevastatin alone or in combination with 0.25 μg/ml 25-hydroxycholesterol (CP 105; FIG. 5, Panel A) or 10 μg/ml of an oxysterol combined with lanolin (C-010; FIG. 5, Panel B). The data was expressed as percent of control proliferation. CP 105 and C-010 inhibited T cell proliferation 14% and 28% at the indicated concentrations, respectively. […]

C[C@H](CCCC(C)(C)O)[C@H]1CC[C@H]2[C@@H]3CC=C4C[C@@H](O)CC[C@]4(C)[C@H]3CC[C@]12C [25-hydroxycholesterol]
factor by which the IC50 of mevastatin for T cell proliferation is decreased: greater than 10 fold
